# Experimental data from the supplement of paper PMC8551327.
# Where a name gives a salt, the structure may show the parent alone. The list shows a part of the results. Rule as the data show it: active = 1.25 or more and inactive = the rest. Most values come without repeats; read them as rough.
# Tested on: Kcc2-LUC knock-in mouse primary cortical neurons (Kcc2 promoter reporter)
# Assay: Kcc2 promoter-driven luciferase activity relative to vehicle control (fold of vehicle (ratio)); higher = stronger Kcc2 promoter activation (Kcc2 expression enhancer)
# Conditions: 100 nM; 48 h
row,Compound,Kcc2 promoter-driven luciferase activity
1,Cc1ccccc1NC(=O)C(=O)C(c1cnc2ccc([N+](=O)[O-])cc2n1)[N+](=O)[O-] (centres undefined),inactive: 0.89
2,C=C1C(=O)C2=CC1CCC(=O)C1(C)CCC(OC(C)=O)C(C)(C)C1CC2O (centres undefined) [Shikoccin],inactive: 1.16
3,"COC1(O)C(=O)c2ccccc2OC1(OC)c1ccccc1 (centres undefined) [3-Hydroxy-2,3-dimethoxy-2-phenylchromen-4-one]",inactive: 0.92
4,CC(=O)C1=C(O)C2(O)C(=O)c3c(c(C)c4ccc(C)c(O)c4c3O)CC2C(N)C1=O (centres undefined) [Chelocardin dodecyl sulfate],active: 1.3
5,C=C1CC(Cn2cc(Br)c(=O)[nH]c2=O)(c2ccc(-c3ccccc3)cc2)OC1=O (centres undefined),inactive: 0.96
6,"Cc1c2cnccc2c(C)c2c1c1ccccc1n2CCOC(=O)c1ccccc1 [2-(5,11-dimethylpyrido[4,3-b]carbazol-6-yl)ethyl benzoate]",inactive: 0.49
7,NC(=O)C1=C[C@H]2[C@@H]3C=C[C@@]2(O)C(=O)O[C@@H]3O1 [Echinosporin],inactive: 1.16
8,N#CC(c1ccccc1)N(CCCCCCN(C(=O)c1ccccc1)C(C#N)c1ccccc1)C(=O)c1ccccc1 (centres undefined),inactive: 1.06
9,N#CCCN(c1ccc(C=O)cc1)S(=O)(=O)c1ccccc1 [N-(2-Cyanoethyl)-N-(4-formylphenyl)benzenesulfonamide],inactive: 1.13
10,CCOC(=O)Cc1cc(=O)oc2cc(O)ccc12 [ethyl 2-(7-hydroxy-2-oxochromen-4-yl)acetate],inactive: 0.56
11,"O=C1NC(c2cccc3ccccc23)Nc2ccccc21 (centres undefined) [2-(naphthalen-1-yl)-2,3-dihydroquinazolin-4(1h)-one]",inactive: 0.9
12,CC[C@H](C)[C@@H](N)C1=N[C@@H](C(=O)N[C@H](CC(C)C)C(=O)N[C@@H](CCC(=O)O)C(=O)N[C@@H](C(=O)N[C@@H]2CCCCNC(=O)[C@@H](CC(N)=O)NC(=O)[C@H](CC(=O)O)NC(=O)[C@@H](Cc3c[nH]cn3)NC(=O)[C@H](Cc3ccccc3)NC(=O)[C@@H]([C@@H](C)CC)NC(=O)[C@H](CCCN)NC2=O)[C@@H](C)CC)CS1 [Bacitracin A],inactive: 0.74
13,NC1N=C(c2ccc(Cl)cc2)C2=C(N1)c1ccccc1CC2 (centres undefined),inactive: 1.13
14,CC(C)(C)c1ccc(O)c(CN(Cc2cc(C(C)(C)C)ccc2O)C2CCCCC2)c1,inactive: 0.46
15,N[C@@H](CSSC[C@H](N)C(=O)O)C(=O)O [Cystine],inactive: 1.13
16,CN(C)c1cccc(F)c1C(=O)NC(=O)Nc1ccc(Cl)cc1 [Clanfenur],inactive: 0.91
17,COc1cc2c3c(c4ccc(OC)c(OC)c4c2cc1OC)CN1CCC[C@@H]1C3 [Tylocrebrine],active: 1.42
18,"c1ccc2c(c1)nnn1c3cnccc3nc21 [Pyrido(4',3':4,5)imidazo(1,2-c)(1,2,3)benzotriazine]",inactive: 1.01
19,CC1=NN(C(=O)c2ccncc2)C(=O)C1N=Nc1ccc(F)cc1 (centres undefined),active: 1.33
20,"CC1=CC(=O)c2cccc(NC3=NCCO3)c21 [4-(4,5-Dihydrooxazol-2-ylamino)-3-methyl-inden-1-one]",active: 5.62

row,Compound,Kcc2 promoter-driven luciferase activity
1,Nc1ncnc2c1ncn2[C@H]1C[C@H](O)[C@@H](CO)O1 [Deoxyadenosine],inactive: 1.12
2,COc1ccc2cc3[n+](cc2c1OC)CCc1cc2c(cc1-3)OCO2 [Berberine Chloride],inactive: 0.9
3,COc1ccc2cc1Oc1ccc(cc1)CC1c3c(cc(OC)c4c3Oc3cc5c(cc3O4)CCNC5C2)CCN1C (centres undefined) [Trigilletine],inactive: 0.81
4,CCCCCCCCCCCCCCCCCCN(C)C(COC)COP(=O)([O-])OCC[N+](C)(C)C (centres undefined),inactive: 0.88
5,O=c1oc2c(O)c(O)cc3c(=O)oc4c(O)c(O)cc1c4c23 [Ellagic Acid],active: 1.42
6,CCCCCCCCCCCCCCCCCCOCC(O)CO (centres undefined) [Batilol],active: 1.44
7,O=C1C=C(Nc2ccccc2C(=O)CC(=O)C(=O)Nc2ccc(Cl)cc2)c2ccccc2C1=O,inactive: 1.13
8,Nc1ccc2c(c1)S(=O)(=O)c1cc(N)ccc1-2 [Benzidine sulfone],inactive: 1.16
9,CN(C)C[C@H]1CC[C@@H](CN(C)C)C1=O,inactive: 0.49
10,CCN(CC)CCNc1ccc(CO)c2sc3ccccc3c(=O)c12 [Hycanthone mesylate],inactive: 0.9
11,C=C1C(=O)O[C@H]2C[C@@H]1C(OC(C)=O)C/C(C)=C/CC/C(C)=C/CC[C@@]2(C)O (some centres undefined) [Crassin Acetate],inactive: 1
12,CN(C)c1ccc2c(SCC(=O)OCC(=O)[C@@]3(O)CC[C@H]4[C@@H]5CCC6=CC(=O)C=C[C@]6(C)[C@H]5C(=O)C[C@@]43C)c3ccc(N(C)C)cc3nc2c1 [Predorine],inactive: 1.03
13,Cc1cc2c(c3oc(C4(C)OC4C4OC4C)cc(=O)c13)C(=O)c1c(O)c(C3CC(C)(N(C)C)C(O)C(C)O3)cc(C3CC(N(C)C)C(O)C(C)O3)c1C2=O (centres undefined) [Hedamycin],inactive: 0.29
14,"COc1cc(-c2cc(=O)c3c(OC)c(OC)c(OC)c(OC)c3o2)cc(OC)c1OC [5,6,7,8,3',4',5'-heptamethoxyflavone]",inactive: 0.82
15,COc1cc2c[n+](C)c3c4cc5c(cc4ccc3c2cc1OC)OCO5 [Nitidine chloride],inactive: 1
16,"COC(=O)c1ccc(NCc2cc(O)ccc2O)cc1 [methyl 4-[(2,5-dihydroxyphenyl)methylamino]benzoate]",inactive: 0.95
17,C=C1C(=O)O[C@@H]2/C=C(/C)C(=O)C[C@H]3OC(C)(C)O[C@]3(C)C[C@@H](OC(=O)/C(C)=C\C)[C@@H]12,inactive: 0.9
18,COc1ccccc1[S+]([O-])Nc1ccccc1 (centres undefined) [2-methoxy-N-phenylbenzenesulfinamide],active: 1.49
19,COc1ccccc1/C=C1\Sc2scc(-c3cccc([N+](=O)[O-])c3)[n+]2C1=O,inactive: 0.92

# Three compounds from above, sorted by count of non-hydrogen atoms, ascending.
row,Compound,Kcc2 promoter-driven luciferase activity
18,COc1ccccc1[S+]([O-])Nc1ccccc1 (centres undefined) [2-methoxy-N-phenylbenzenesulfinamide],active: 1.49
1,Nc1ncnc2c1ncn2[C@H]1C[C@H](O)[C@@H](CO)O1 [Deoxyadenosine],inactive: 1.12
17,C=C1C(=O)O[C@@H]2/C=C(/C)C(=O)C[C@H]3OC(C)(C)O[C@]3(C)C[C@@H](OC(=O)/C(C)=C\C)[C@@H]12,inactive: 0.9
